Measured values: patent US20040214988
Construct, isoform or probe ends are uncertain for at least one entry. For some assays here: A negative result means that nothing was seen under these conditions.

By UniProt entry, the sequences of proteins in these tests, tags left out. Residues count along the entry.
UniProt P03069, 226-281: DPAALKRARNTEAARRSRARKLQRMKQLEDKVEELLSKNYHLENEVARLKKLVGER

Assays:
[1] = target: Tfl-bZip (GCN4 bZip segment 226-281 with Tfl-GCN4-p1 dimerization domain) four d-position Leu of the GCN4-p1 zipper replaced by 5,5,5-trifluoroleucine (UniProt P03069); experiment: EMSA; conditions: no protein-bound DNA seen; synthetic protein
[2] = target: Leu-bZip (GCN4 bZip segment, residues 226-281) (UniProt P03069); experiment: EMSA; conditions: densitometry of mobility shift; site name for this value implied by order in text; synthetic protein

Row | Sequence | binding result [1] | Kd [2]
1 | GATCCCAACACGTGTTGGGATC (double strand) [NON nonspecific oligonucleotide] | no binding | 
2 | TGGAGATGACGTCATCTCCT (double strand) [CREB site oligonucleotide] |  | 4.8 nM
